Values from PubChem BioAssay AID1224830 (NIAID, 2016)

Purpose: 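Genes whose knock-down alters the TNF-alpha reporter response to LPS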 (primary screen)
Cells: human THP-1 monocytic leukaemia cells, TNF dual-luciferase reporter clone, PMA-differentiated to macrophage-like cells
Knock-down reagent: siRNA pool against human genes, 50 nM
Duration: LPS for 4 h, given about 3 days after siRNA transfection
Conditions: bacterial LPS (TLR4 ligand), 10 ng/ml
Measured: 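Ratio of firefly to renilla light, scaled to the plate median and expressed as a robust z-score per replicate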
Scale: TNF reporter robust z-score: higher = stronger TNF reporter response to LPS
Rule for the call: 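a well is active when its z-score exceeds 2.8 or falls below -1.5; control wells carry no call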
The whole screen tested about 18,000 reagents; this is a random part of them. About 2,900 of them (16%) were called active. 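Calls are made per well; low scores hint the gene aids the LPS response, high scores that it dampens it.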 A number with no mark means an inactive call. Repeated entries: four replicate wells of each siRNA pool.

| gene symbol | PubChem SID | TNF reporter robust z-score |
| --- | --- | --- |
| EDRF1 | SID315455668 | -0.69 |
| EDRF1 | SID315455668 | -0.35 |
| EDRF1 | SID315455668 | 0.76 |
| ZNF763 | SID315463776 | 0.31 |
| ZNF763 | SID315463776 | 0.59 |
| ZNF763 | SID315463776 | 1.37 |
| ZNF763 | SID315463776 | 1.12 |
| NHLRC4 | SID315463714 | -0.38 |
| NHLRC4 | SID315463714 | -0.29 |
| NHLRC4 | SID315463714 | -0.5 |
| NHLRC4 | SID315463714 | -0.51 |
| STK39 | SID315456049 | -0.56 |
| STK39 | SID315456049 | 0.19 |
| STK39 | SID315456049 | 0.49 |
| STK39 | SID315456049 | 0.98 |
| DDX1 | SID315448274 | -0.67 |
| DDX1 | SID315448274 | -0.09 |
| DDX1 | SID315448274 | -0.05 |
| DDX1 | SID315448274 | -0.51 |
| GTSF1 | SID315461521 | -0.95 |
| GTSF1 | SID315461521 | -0.17 |
| GTSF1 | SID315461521 | -0.28 |
| GTSF1 | SID315461521 | 0.16 |
| DNAJB11 | SID315456866 | 1.58 |
| DNAJB11 | SID315456866 | 2.63 |
| DNAJB11 | SID315456866 | -0.25 |
| DNAJB11 | SID315456866 | 2.26 |
| WDR75 | SID315460201 | -0.58 |
| WDR75 | SID315460201 | -0.22 |
| WDR75 | SID315460201 | 0.26 |
| WDR75 | SID315460201 | 0.61 |
| KIF1B | SID315454987 | 0.52 |
| KIF1B | SID315454987 | 0.7 |
| KIF1B | SID315454987 | 1.55 |
| KIF1B | SID315454987 | -0.2 |
| CLEC18B | SID315465014 | 1.13 |
| CLEC18B | SID315465014 | 0.01 |
| CLEC18B | SID315465014 | 0.29 |
| CLEC18B | SID315465014 | 0.24 |
| MPP2 | SID315450029 | -0.71 |
| MPP2 | SID315450029 | 0.5 |
| MPP2 | SID315450029 | 0.75 |
| MPP2 | SID315450029 | 0.97 |
| KCTD6 | SID315463048 | -0.12 |
| KCTD6 | SID315463048 | -0.07 |
| KCTD6 | SID315463048 | 0.19 |
| KCTD6 | SID315463048 | 1.36 |
| RAMP2 | SID315453959 | -0.64 |
| RAMP2 | SID315453959 | -0.06 |
| RAMP2 | SID315453959 | -0.56 |
| RAMP2 | SID315453959 | 0 |
| RLIM | SID315456499 | -1.66 (active) |
| RLIM | SID315456499 | -1.96 (active) |
| RLIM | SID315456499 | -0.64 |
| RLIM | SID315456499 | 0.32 |
| CNOT8 | SID315453208 | 0.34 |
| CNOT8 | SID315453208 | 0.54 |
| CNOT8 | SID315453208 | 0.68 |
| CNOT8 | SID315453208 | 0.16 |
| NRBP2 | SID315464080 | -0.77 |
| NRBP2 | SID315464080 | -1.52 (active) |
| NRBP2 | SID315464080 | -0.97 |
| NRBP2 | SID315464080 | -0.78 |
| TOX4 | SID315453639 | -1.05 |
| TOX4 | SID315453639 | -0.88 |
| TOX4 | SID315453639 | 0.25 |
| TOX4 | SID315453639 | -0.35 |
| TPRKB | SID315456392 | -2.15 (active) |
| TPRKB | SID315456392 | -0.93 |
| TPRKB | SID315456392 | -0.76 |
| TPRKB | SID315456392 | -0.82 |
| NUP133 | SID315457821 | 0.04 |
| NUP133 | SID315457821 | 0.54 |
| NUP133 | SID315457821 | -0.81 |
| NUP133 | SID315457821 | -0.2 |

Reagents listed so far with an active call (4):
| gene symbol | PubChem SID | TNF reporter robust z-score |
| --- | --- | --- |
| RLIM | SID315456499 | -1.66 (active) |
| RLIM | SID315456499 | -1.96 (active) |
| NRBP2 | SID315464080 | -1.52 (active) |
| TPRKB | SID315456392 | -2.15 (active) |
